Data taken from publication PMC8443252.

Biological target: fatty acid synthase (D. melanogaster (endogenous in adult flies))
Experiment: co-IP; FASN immunoprecipitated with guinea pig anti-FASN from abdomens of 5-day-old adult males; 10 mM Tris pH 7.4, 150 mM NaCl, 0.1% Triton X-100; normal guinea pig IgG as control; flies: w1118 control, dSTING deletion, rescue (dSTING deletion; GFP-dSTING), cg-GAL4/GFP-dSTING

binding: binds
B1: GFP-tagged Drosophila STING (protein, UniProt A0A0B4LFY9 1-343)
chain: MAIASNVVEAGNAVRAEKGRKYFYFRKMIGDYIDTSIRIVATVFLADLLLRLYRCVVEYGSNGRYYLPEDRLWIILRRSCTYNNRSIYLIVGFLLVAFFRISVTGNYRNVMPTTLFLFQMPLYWIWSFTDMDQSTLSYSHWIRDSHGLDYAAGMASNYFHGYLKLSLPERKDDGLKHRLAMYEDKNNVTFGIKRLVILIPDEMFVNGVLESHLLDKAEPLETQFINRAGVYRPFKHDVYRMNKKVNGRTYYFAVEGATPMISFFDATYSNLSGTWQMQELKREIWIKFYKHLKELITTWPETRDLVELIIYNSHDSKGNLVDVGELLVAHMQNKTKTIDEISN

No constants are given. Whether binding was seen depends on the method and setting. In cells and extracts the contact can be indirect. A result given as binding can be weak or reduced; the word gives no strength. Tags and fused reporters may be left off the sequences shown.
